Source: patent US10365286B2, “Chromophoric structures for lanthanide chelates” (RADIOMETER TURKU OY, priority 2014, dated 2019)

Test system: cTnI
Assay: Model cTnI immunoassay with chelate-labelled detection antibodies
Conditions: for Counts for 0 ng/ml (cTnI standard) / Counts for 5 ng/ml cTnI standard / Eu/IgG (labeling ratio, chelates per protein) / Signal/Eu: antibody labelled with the chelate; for Signal improvement/Eu: versus reference chelate
Method: Labeling was performed in 10 mM botate buffer, pH 8.6-9.0 using 30-fold molar excess of chelates. Reactions were normally carried out overnight at +4° C. or at room temperature. Labeled antibodies were purified on Superfex 200 HR 10/30 or Superdex 200 HiLoad 26/60 gel filtration columns using Tris-saline-azide […], 9.0 g/L NaCl, and 0.5 g/L NaN3), pH 7.75 as an elution buffer. The fractions containing the antibody were pooled and the europium concentrations measured against europium calibrator. The purified antibody comjugate and the labeling ratio (i.e. chelates per protein) were quantified by calculating the protein yield or by measureing the absorbance at 280 nm and subtracting the absorption caused by the added chelate.
An earlier published nine dentate label {2,2′,2″,2′″-{[2-(4-isothiocyanato-phenyl)ethylimino]bis(methylene)bis{4-{[4-(α-galactopyranoxy)phenyl]ethynyl}-pyridine-bis(methylenenitrilo)}tetrakis(acetato)}europium(III) (von Loden, P., et al., 2003, Anal. Chem. 75, 3193) was used as a reference label.
Two labels 49 and 54 were tested in a model cTnl assay. The cTnl immunoassays were performed by using biotinylated capture cTnl antibodies together with the labelled cTnl detection antibodies described above and according to the main principles described in published method (von Loden, P., et al., 2003, Anal. Chem. 75, 3193). The combined assay/wash buffer contained 5 mmol HEPES, 2.1 g/L NaCl, 0.1 mmol EDTA, 0.055 g/L Tween 20 and 1 g/L Gernall II, pH 7.75. The capture biotinylated antibodies were pre-incubated in assay wells. The standards followed by the detection label antibody diluted in 20 μl and 10 μl assay buffer, respectively, were applied to the wells. After one hour incubation at 36 C, the wells were washed, dried and measured.

SMILES	Counts for 0 ng/ml (cTnI standard) (First test)	Counts for 5 ng/ml cTnI standard (First test)	Eu/IgG (labeling ratio, chelates per protein) (First test)	Signal/Eu (First test)	Signal improvement/Eu (First test)	Counts for 0 ng/ml (cTnI standard) (Second test)	Counts for 5 ng/ml cTnI standard (Second test)	Eu/IgG (labeling ratio, chelates per protein) (Second test)	Signal/Eu (Second test)	Signal improvement/Eu (Second test)
O=C([O-])CN(CC(=O)[O-])Cc1cc(C#Cc2ccc3c(c2)C(CC(=O)[O-])(CC(=O)[O-])c2ccccc2-3)cc(CN(CCc2ccc(N=C=S)cc2)Cc2cc(C#Cc3ccc4c(c3)C(CC(=O)[O-])(CC(=O)[O-])c3ccccc3-4)cc(CN(CC(=O)[O-])CC(=O)[O-])n2)n1.[Eu+3].[Na+].[Na+].[Na+].[Na+].[Na+] [Compound 49]	1095	110698	8.9	12254	2.2					
O=C([O-])CN(CC(=O)[O-])Cc1cc(-c2ccc3c(c2)C(CC(=O)[O-])(CC(=O)[O-])c2ccccc2-3)cc(CN(CCc2ccc(N=C=S)cc2)Cc2cc(-c3ccc4c(c3)C(CC(=O)[O-])(CC(=O)[O-])c3ccccc3-4)cc(CN(CC(=O)[O-])CC(=O)[O-])n2)n1.[Eu+3].[Na+].[Na+].[Na+].[Na+].[Na+] [Compound 54]						421	59602	6.3	9394	1.2
